Results taken from PubChem BioAssay AID588590 (National Center for Advancing Translational Sciences (NCATS), 2011).
Out of some 390,000 compounds screened, about 4,000 (1%) were called active. Inconclusive results, whose numbers are uncertain, are shown with a selection of clear calls. Calls come from the whole dose curve; as a rule, active = well fitted inhibition curve with a large enough effect; inconclusive = small, poorly fitted or top-dose-only effect, or another doubt; inactive = no such curve, though single readings can be large or run the other way. A potency beside an inconclusive call is a rough fit, not a confirmed value.

Chains of the proteins cited; added tags and fusions are not shown. Lines headed by an entry give the natural chain unless they say otherwise; changes in a name come on top.
UniProt Q9UNA4: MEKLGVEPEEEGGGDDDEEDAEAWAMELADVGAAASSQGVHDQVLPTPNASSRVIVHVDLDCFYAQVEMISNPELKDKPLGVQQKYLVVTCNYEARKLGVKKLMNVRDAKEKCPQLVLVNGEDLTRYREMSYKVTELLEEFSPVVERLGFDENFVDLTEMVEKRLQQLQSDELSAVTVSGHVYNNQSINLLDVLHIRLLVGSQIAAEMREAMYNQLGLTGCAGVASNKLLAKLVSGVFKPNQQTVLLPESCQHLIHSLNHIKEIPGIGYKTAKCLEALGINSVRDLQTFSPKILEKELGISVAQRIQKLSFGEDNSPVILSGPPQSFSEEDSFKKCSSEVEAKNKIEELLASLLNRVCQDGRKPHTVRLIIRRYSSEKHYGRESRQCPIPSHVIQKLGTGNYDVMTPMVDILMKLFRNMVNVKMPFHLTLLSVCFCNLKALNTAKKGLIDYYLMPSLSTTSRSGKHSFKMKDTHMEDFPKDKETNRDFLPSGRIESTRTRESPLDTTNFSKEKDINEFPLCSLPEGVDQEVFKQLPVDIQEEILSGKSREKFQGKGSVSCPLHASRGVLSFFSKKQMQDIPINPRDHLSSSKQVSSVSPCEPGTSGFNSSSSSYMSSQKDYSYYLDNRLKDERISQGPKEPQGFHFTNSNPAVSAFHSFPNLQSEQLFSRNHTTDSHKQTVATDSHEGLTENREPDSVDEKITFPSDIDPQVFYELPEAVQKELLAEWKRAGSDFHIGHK

Each compound was assayed against DNA polymerase iota (Homo sapiens) (UniProt Q9UNA4) (assay: qHTS for Inhibitors of Polymerase Iota). Details: Pol iota fluorescent replication assay, 10 min; series mostly up to 115 µM; activity, negative = inhibition: at the top concentration.
How it was run: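 Fluorescent replication assay read twice, at 0 min and 10 min after adding 50 nM (final) substrate. Enzyme (10 nM) and compounds were first incubated 15 min at room temperature; enzyme-free buffer wells were negative controls.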
Potency is the fitted concentration of half-maximal effect.

SMILES | Potency | activity, negative = inhibition
Cc1ccc2nc(-c3ccncc3)cc(C(=O)NCCc3ccc(F)cc3)c2c1 | inconclusive: 28.2 µM [inhibitor, single point] | –
COc1cc(NC(=O)CN2C(=O)C(=O)N(C3CCCC3)C2=O)cc(OC)c1 | inconclusive: 112 µM [inhibitor, partial curve, poor fit] | –
COc1cc(/C=C2/SC(=S)N(CC3CCCO3)C2=O)ccc1O (stereo not drawn) | inconclusive: 31.6 µM [inhibitor, partial curve, poor fit] | –
CC(=O)c1c(C)n(-c2ccc(C)cc2)c2ccc(OC(=O)COc3ccccc3)cc12 | inconclusive: 79.4 µM [inhibitor, partial curve, poor fit] | –
Cn1cc(S(=O)(=O)Nc2ccc(F)cc2F)c(=O)n(C)c1=O | inconclusive: 28.2 µM [inhibitor, single point] | –
COc1ccc(Cl)cc1NC(=O)C1CCN(S(=O)(=O)c2ccc(F)cc2)CC1 | active: 89.1 µM | –
Cc1ccc(N2C(=O)CS(=O)(=O)C23C(=O)N(Cc2ccc(Cl)cc2)c2ccccc23)cc1C (stereo not drawn) | – | inactive: 26.7%
CCOc1cccc(C(=O)N(Cc2ccc(F)cc2)Cc2ccco2)c1 | – | inactive: 1.89%
COc1cccc(N=c2oc3ccc(OC)cc3cc2-c2nc3ccccc3[nH]2)c1 | inconclusive: 12.6 µM [inhibitor, partial curve] | –
CCOC(=O)NC1(NCC(C)C)Oc2ccccc2O1 | inconclusive: 35.5 µM [inhibitor, partial curve, poor fit] | –
O=C(C[n+]1ccccc1Cl)c1cccc([N+](=O)[O-])c1 | – | inactive: 20.2%
CCO/C=C1\SC(=S)N(c2ccc(Cl)cc2)C1=O | active: 25.1 µM | –
COc1ccc(/C=C2\C(=O)NC(=S)N2C(=O)c2ccc(C)cc2)cc1 | active: 17.8 µM | –
CSc1cccc(NC(=O)CN2C(=O)CCc3cc(S(=O)(=O)N4CCCCC4)ccc32)c1 | – | inactive: -12.3%
CC(Oc1ccccc1)C(=O)Nc1nc(-c2ccccn2)cs1 (stereo not drawn) | inconclusive: 22.4 µM [inhibitor, single point] | –
Cc1cc(C)cc(NC(=O)c2cccc(C(=O)Nc3cc(C)cc(C)c3)c2)c1 | – | inactive: 9.56%
O=C(CSc1ccc(-c2nc3ccccc3[nH]2)cn1)N1CCN(C(=O)c2ccco2)CC1 | active: 15.8 µM | –
COc1ccc2nc(C)cc(Nc3ccc(N4CCOCC4)cc3)c2c1 | inconclusive: 28.2 µM [inhibitor, partial curve, poor fit] | –
COc1ccc(C2CC(=O)N3CN(Cc4ccco4)CSC3=C2C#N)cc1 (stereo not drawn) | inconclusive: 2.82 µM [inhibitor, full curve, poor fit] | –
C=CCNc1nc(-c2sc(NC(=O)CC)nc2C)cs1 | inconclusive: 39.8 µM [inhibitor, single point] | –
COc1cc(/C=C2\SC(=O)N(c3cccc(Cl)c3)C2=O)cc([N+](=O)[O-])c1O | active: 6.31 µM | –
Cc1cc(/C=C/c2ccnc3ccccc23)ccc1N | inconclusive: 100 µM [inhibitor, partial curve, poor fit] | –
CC(SC(=S)N1CCOCC1)C(=O)O (stereo not drawn) | inconclusive: 89.1 µM [inhibitor, single point] | –

SMILES | Potency | activity, negative = inhibition
Cc1ccc(S(=O)(=O)/N=C(\CCl)N2CCOCC2)cc1 | inconclusive: 89.1 µM [inhibitor, partial curve] | –
CCOC(=O)c1cnc2c(C)c(Cl)ccc2c1NCCCN1CCOCC1 | – | inactive: 12.8%
O=C(O)c1ccc(CSCc2ccco2)cc1 | inconclusive: 15.8 µM [inhibitor, partial curve, poor fit] | –
COc1cc2ccccc2cc1C(=O)N1CCN(c2nc3c(F)cc(F)cc3s2)CC1 | – | inactive: 3.91%
COc1ccc(OCCN2C(=O)c3cccc(N)c3C2=O)cc1 | inconclusive: 100 µM [inhibitor, partial curve, poor fit] | –
CC1(C)NC(=O)N(CC(=O)OCC(=O)c2ccc(Cl)s2)C1=O | – | inactive: 21.8%
COc1cc([N+](=O)[O-])ccc1-c1ccc(/C=N/NC(N)=O)o1 | active: 89.1 µM | –
CCOc1ccccc1NC(=O)Cn1nc(N2CCN(c3ccccc3)CC2)ccc1=O | – | inactive: -12.1%
Cn1c(/C(C#N)=C/c2ccc(C(F)(F)F)cc2)nc2ccccc21 | inconclusive: 89.1 µM [inhibitor, single point] | –
CCOC(=O)N1CCN(C(=O)CN(c2cccc(C)c2)S(=O)(=O)c2ccc(C)cc2)CC1 | inconclusive: 100 µM [inhibitor, partial curve, poor fit] | –
COc1ccccc1NC(=O)C(=O)c1cn(CC(=O)N2CCOCC2)c2ccccc12 | inconclusive: 79.4 µM [inhibitor, partial curve, poor fit] | –
O=C(COc1ccc(Br)cc1)Nc1nnc(C2CC2)s1 | inconclusive: 89.1 µM [inhibitor, partial curve, poor fit] | –
CCN1C=C(Cc2ccccc2C)C2=C(C1)C(c1ccccc1C)C(C#N)=C(N)O2 (stereo not drawn) | inconclusive: 1.78 µM [inhibitor, full curve, poor fit] | –
CCCN(CCC)C(=O)Cn1c(=O)n(-c2ccc(Cl)c(Cl)c2)c(=O)c2c(C)c(C(=O)N(C)C)sc21 | – | inactive: 17.1%
CCc1nnc(NS(=O)(=O)c2ccc(NC(=O)/C=C/c3ccc(OC)cc3OC)cc2)s1 | inconclusive: 15.8 µM [inhibitor, full curve] | –
S=c1nc(-c2cccc(Cl)c2)[nH][nH]1 | – | inactive: 18.5%
CNCc1cc(Cl)cc(OC)c1OC(C)C | inconclusive: 100 µM [inhibitor, single point] | –
O=c1[nH]c(/C=C\c2ccccc2F)nc(O)c1[N+](=O)[O-] | inconclusive: 44.7 µM [inhibitor, partial curve, poor fit] | –
Cc1ccc(S(=O)(=O)C(CNS(=O)(=O)c2ccc(F)c(C)c2)c2cccs2)cc1 (stereo not drawn) | inconclusive: 89.1 µM [inhibitor, single point] | –
O=C(N/N=C/c1ccc([N+](=O)[O-])s1)c1ccncc1 | inconclusive: 3.16 µM [inhibitor, full curve, poor fit] | –
COc1ccc(CNC(=O)C(=O)NCC(c2cccs2)S(=O)(=O)c2cccs2)cc1 (stereo not drawn) | – | inactive: 16.6%
CC(C)c1[nH]nc2c1C(c1cccs1)C(C#N)=C(N)O2 (stereo not drawn) | inconclusive: 3.55 µM [inhibitor, partial curve, poor fit] | –
Cn1c(CN2CCOCC2)nc2cc(NC(=O)c3ccccc3Cl)ccc21 | inconclusive: 7.94 µM [inhibitor, full curve, poor fit] | –

Quoted from the listing:
For Potency, COc1ccc(/C=C2\C(=O)NC(=S)N2C(=O)c2ccc(C)cc2)cc1 is entered as active: 17.8 µM
For Potency, CC(=O)c1c(C)n(-c2ccc(C)cc2)c2ccc(OC(=O)COc3ccccc3)cc12 is entered as inconclusive: 79.4 µM [inhibitor, partial curve, poor fit]
For activity, negative = inhibition, S=c1nc(-c2cccc(Cl)c2)[nH][nH]1 is entered as inactive: 18.5%
For Potency, COc1ccc(Cl)cc1NC(=O)C1CCN(S(=O)(=O)c2ccc(F)cc2)CC1 is entered as active: 89.1 µM

Continuation.

SMILES | Potency | activity, negative = inhibition
Cc1ccc(OCC(=O)Nc2cccc3ccc(C)nc23)c(C)c1 | inconclusive: 2.82 µM [inhibitor, full curve, poor fit] | –
Cc1nc2c(oc3ccccc32)c(=O)o1 | – | inactive: 7.81%
O=C1c2cccc([N+](=O)[O-])c2C(=O)N1c1c[nH]c(=O)[nH]c1=O | inconclusive: 44.7 µM [inhibitor, partial curve, poor fit] | –
CC(C(=O)Nc1ccccc1)n1nnc2sc3c(c2c1=O)CCCC3 (stereo not drawn) | inconclusive: 63.1 µM [inhibitor, partial curve, poor fit] | –
CCCSc1nc(C)c2cc(C)cc(C)c2n1 | – | inactive: 8.78%
CCc1cc(-c2ccc3c(c2)COc2c4ccccc4nn2-3)on1 | inconclusive: 28.2 µM [inhibitor, full curve, poor fit] | –
N#CCn1cnc2sc(-c3ccccc3)cc2c1=O | – | inactive: 39%
NC(=O)c1ccsc1NC(=O)COC(=O)c1ccccn1 | inconclusive: 15.8 µM [inhibitor, full curve, poor fit] | –
Cc1ccc(NC(=O)C2CCCN2S(=O)(=O)c2ccc3nc(-c4ccccc4)[nH]c3c2)cc1C (stereo not drawn) | inconclusive: 89.1 µM [inhibitor, partial curve, poor fit] | –
Cc1cccc(Cn2c(=O)n(Cc3ccccc3)c(=O)c3sc4ccccc4c32)c1 | inconclusive: 89.1 µM [inhibitor, single point] | –
Cc1ccc(NC(=O)CN(c2ccc(C)cc2)S(=O)(=O)c2cccc3nonc23)cc1 | inconclusive: 1.78 µM [inhibitor, full curve] | –
CCOc1ccccc1NC(=O)CCc1c(C)nc2cc(-c3ccccc3)nn2c1C | – | inactive: 41.8%
COc1cc(OC)cc(N2C(=O)CC(N3CCC(C(=O)N4CCCCC4)CC3)C2=O)c1 (stereo not drawn) | inconclusive: 63.1 µM [inhibitor, partial curve, poor fit] | –
COc1ccc(-n2c(C)c(C(=O)O)c3cc(OC)c4ccccc4c32)cc1 | inconclusive: 89.1 µM [inhibitor, single point] | –
COc1cc(/C=C2\S/C(=N/S(=O)(=O)c3ccc(C)cc3)NC2=O)c([N+](=O)[O-])cc1OC | – | inactive: 38.6%
COc1ccc(COC[C@H](C)[C@H](O)[C@@H](C)[C@H]2OC(=O)[C@@H]2C)cc1 | inconclusive: 15.8 µM [inhibitor, full curve, poor fit] | –
O=C1c2cccc3cccc(c23)C(=O)N1c1ccccn1 | inconclusive: 39.8 µM [inhibitor, single point] | –
COc1cccc(NC(=O)Cn2c(=O)n(CCc3cccc(C)c3)c(=O)c3ccccc32)c1 | active: 89.1 µM | –
Cc1ccc(Nc2nnc(SCc3cc(=O)n4cc(C)ccc4n3)s2)cc1 | – | inactive: -5.86%
CCOC(=O)C1CCN(Cc2cc(=O)n3c(-c4ccccc4)csc3n2)CC1 | inconclusive: 25.1 µM [inhibitor, single point] | –
Cc1ccc(S(=O)(=O)N2CCN(c3nc(N(C)c4cc(Cl)ccc4O)nc4ccccc34)CC2)cc1 | – | inactive: 18.6%
Cc1ccc(O)c(C(=O)c2cc(C#N)c(=O)n(-c3nccs3)c2)c1 | inconclusive: 15.8 µM [inhibitor, partial curve, poor fit] | –
